# Assay results: patent publication US9630943B2, “Tetrahydronaphthyl(thio) carboxamides” (BAYER CROPSCIENCE AG, priority 2012, dated 2017)
# Assay: Measurement of logP values by HPLC on reversed phase columns (EEC directive 79/831 Annex V.A8)
# Format: physicochemical
# Conditions: method [a]
compound,measurement,value
Cc1nn(C)c(F)c1C(=O)Nc1cccc2c1CCC(C)(C)C2 [Example 44],LogP^[a],3.37^[a]
